{
  "source": "the supplement of paper PMC4635364",
  "note": "Structures can show the parent of a compound that is named as a salt. The list shows a part of the results. Repeats in this data set agree poorly, so a single value says little.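 Human fetal ventral-midbrain neural progenitor line ReNCell VM, differentiated without mitogens. Images stained for doublecortin (early neurons) or tyrosine hydroxylase (dopaminergic neurons) were scored by blinded raters against untreated wells (0 = no change). Repeats and both raters were averaged, and compounds averaging 2 or higher were picked as hits for retesting.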",
  "data": [
    {"system": "ReNCell VM", "experiment": "dopaminergic neuron differentiation score (TH+ cell fraction vs untreated, manual image score) (score (0 to 3)); higher = more TH+ dopaminergic neuron differentiation", "details": "library: Tocriscreen; 2 uM; 4 weeks; BDNF 10 ng/ml + GDNF 10 ng/ml", "values": [
      {"smiles": "O=C(/C=C/c1c(C(=O)O)[nH]c2cc(Cl)cc(Cl)c12)Nc1ccccc1", "note": "[Gavestinel]", "dopaminergic neuron differentiation score": "inactive: 0"},
      {"smiles": "C/N=C(/NC#N)NCCSCc1csc(NC(=N)N)n1", "note": "[Tiotidine]", "dopaminergic neuron differentiation score": "inactive: 0"},
      {"smiles": "CCOCC(O)COc1ccc(NC(=O)CC[S+](C)C)cc1", "note": "(stereo not drawn) [Suplatast tosylate]", "dopaminergic neuron differentiation score": "inactive: 0"},
      {"smiles": "CCOC(=O)c1c(C)[nH]c2ccc3c(c12)CN1CCc2cc(OC)ccc2C1O3", "note": "(stereo not drawn)", "dopaminergic neuron differentiation score": "inactive: 0"},
      {"smiles": "CCN(CC)CCOc1ccc(Cc2ccccc2)cc1", "note": "[DPPE fumarate]", "dopaminergic neuron differentiation score": "inactive: 0"},
      {"smiles": "Cc1c[nH]c(=O)n(CCCN2CCN(c3ccccc3OCC(F)(F)F)CC2)c1=O", "dopaminergic neuron differentiation score": "inactive: 0"},
      {"smiles": "O=C(c1ccc(F)cc1)C1CCN(CCCCc2ccccc2)CC1", "note": "[4-(4-Fluorobenzoyl)-1-(4-phenylbutyl)-piperidine oxalate]", "dopaminergic neuron differentiation score": "inactive: 0"},
      {"smiles": "O=c1cc(-c2cccc3c2Sc2ccccc2S3)oc(N2CCOCC2)c1", "dopaminergic neuron differentiation score": "inactive: 0"}
    ]}
  ]
}
